The text below walks through data of PMC5353758.

Amino acid sequences for entries named in this document (tags omitted).
UniProt O14974: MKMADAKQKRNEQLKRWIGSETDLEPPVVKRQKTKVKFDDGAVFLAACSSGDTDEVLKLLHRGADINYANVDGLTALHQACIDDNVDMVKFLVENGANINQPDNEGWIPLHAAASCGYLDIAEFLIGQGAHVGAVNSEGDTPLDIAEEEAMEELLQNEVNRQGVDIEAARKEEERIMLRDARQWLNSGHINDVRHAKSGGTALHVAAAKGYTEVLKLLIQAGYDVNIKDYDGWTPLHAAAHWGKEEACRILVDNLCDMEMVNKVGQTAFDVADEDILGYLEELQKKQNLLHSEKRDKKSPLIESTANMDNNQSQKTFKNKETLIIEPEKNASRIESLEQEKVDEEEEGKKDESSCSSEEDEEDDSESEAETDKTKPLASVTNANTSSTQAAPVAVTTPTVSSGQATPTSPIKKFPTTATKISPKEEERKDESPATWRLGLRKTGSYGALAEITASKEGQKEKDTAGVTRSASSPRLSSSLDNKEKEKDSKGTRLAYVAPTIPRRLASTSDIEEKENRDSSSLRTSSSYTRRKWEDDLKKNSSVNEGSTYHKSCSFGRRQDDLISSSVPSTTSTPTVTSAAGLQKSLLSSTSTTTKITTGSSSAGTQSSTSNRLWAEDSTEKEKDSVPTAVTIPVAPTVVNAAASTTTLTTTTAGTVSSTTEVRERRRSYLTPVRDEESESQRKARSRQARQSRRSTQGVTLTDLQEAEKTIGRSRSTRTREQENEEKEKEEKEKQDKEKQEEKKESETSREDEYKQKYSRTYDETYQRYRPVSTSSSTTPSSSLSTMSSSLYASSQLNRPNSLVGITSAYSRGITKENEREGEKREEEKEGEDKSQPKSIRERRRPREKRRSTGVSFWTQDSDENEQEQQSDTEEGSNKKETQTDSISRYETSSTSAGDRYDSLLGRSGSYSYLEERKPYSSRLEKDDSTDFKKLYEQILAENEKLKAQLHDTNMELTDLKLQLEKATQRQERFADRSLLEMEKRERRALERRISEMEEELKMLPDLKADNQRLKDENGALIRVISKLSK

The target in one assay is FLAG-MYPT1 (UniProt O14974). Nature of the assay: co-IP; lysates of tsA201 cells co-expressing FLAG-MYPT1 and c-myc-eNOS; anti-FLAG M2 or anti-c-myc EZview Red affinity gel; blots with anti-MYPT1 and anti-eNOS or anti-FLAG and anti-c-myc.
The target in assay [1] is GST-MYPT1 (myosin phosphatase target subunit-1), full-length (UniProt O14974). The assay can be described thus: SPR; Biacore 3000; full-length GST-MYPT1 captured on anti-GST coupled CM5 chip; c-myc-eNOS at 0.5 or 1 μM injected; 10 mM Hepes pH 7.4, 0.15 M NaCl, 3 mM EDTA, 0.005% Surfactant P20; GST surface subtracted; both purified.

Results are given in words; binding and its absence hold for the method and conditions named. For some assays here: Binding seen in cells or lysates may run through a third protein. Some results given as binding are weak or reduced against the parent protein; the word gives no strength. Sequences can lack the tags named with a protein.

B1: c-myc-eNOS (protein, UniProt P29473 1-1205)
chain: MGNLKSVGQEPGPPCGLGLGLGLGLCGKQGPASPAPEPSRAPAPATPHAPDHSPAPNSPTLTRPPEGPKFPRVKNWELGSITYDTLCAQSQQDGPCTPRCCLGSLVLPRKLQTRPSPGPPPAEQLLSQARDFINQYYSSIKRSGSQAHEERLQEVEAEVASTGTYHLRESELVFGAKQAWRNAPRCVGRIQWGKLQVFDARDCSSAQEMFTYICNHIKYATNRGNLRSAITVFPQRAPGRGDFRIWNSQLVRYAGYRQQDGSVRGDPANVEITELCIQHGWTPGNGRFDVLPLLLQAPDEAPELFVLPPELVLEVPLEHPTLEWFAALGLRWYALPAVSNMLLEIGGLEFSAAPFSGWYMSTEIGTRNLCDPHRYNILEDVAVCMDLDTRTTSSLWKDKAAVEINLAVLHSFQLAKVTIVDHHAATVSFMKHLDNEQKARGGCPADWAWIVPPISGSLTPVFHQEMVNYILSPAFRYQPDPWKGSATKGAGITRKKTFKEVANAVKISASLMGTLMAKRVKATILYASETGRAQSYAQQLGRLFRKAFDPRVLCMDEYDVVSLEHEALVLVVTSTFGNGDPPENGESFAAALMEMSGPYNSSPRPEQHKSYKIRFNSVSCSDPLVSSWRRKRKESSNTDSAGALGTLRFCVFGLGSRAYPHFCAFARAVDTRLEELGGERLLQLGQGDELCGQEEAFRGWAKAAFQASCETFCVGEEAKAAAQDIFSPKRSWKRQRYRLSTQAEGLQLLPGLIHVHRRKMFQATVLSVENLQSSKSTRATILVRLDTAGQEGLQYQPGDHIGICPPNRPGLVEALLSRVEDPPPPTESVAVEQLEKGSPGGPPPSWVRDPRLPPCTLRQALTFFLDITSPPSPRLLRLLSTLAEEPSEQQELETLSQDPRRYEEWKWFRCPTLLEVLEQFPSVALPAPLLLTQLPLLQPRYYSVSSAPNAHPGEVHLTVAVLAYRTQDGLGPLHYGVCSTWLSQLKTGDPVPCFIRGAPSFRLPPDPYVPCILVGPGTGIAPFRGFWQERLHDIESKGLQPAPMTLVFGCRCSQLDHLYRDEVQDAQERGVFGRVLTAFSREPDSPKTYVQDILRTELAAEVHRVLCLERGHMFVCGDVTMATSVLQTVQRILATEGDMELDEAGDVIGVLRDQQRYHEDIFGLTLRTQEVTSRIRTQSFSLQERHLRGAVPWAFDPPGPDTPGP
Consider B1, for which the binding entry (with FLAG-MYPT1; in assay [1]) was “binds” each time.
